Measurements as given in PubChem BioAssay (EPA / NIEHS).
Values joined by “and” are separate entries in the source; they are usually repeats but may differ in a detail not shown here. Equal entries are not always repeated. Inconclusive results, whose numbers are uncertain, are shown with a selection of clear calls. Potencies of inconclusive entries are doubtful fits and often do not repeat. Active and inactive are the calls of the source. Rule for the calls: active = hit-call score of the fitted dose curve at least 0.9, where 1 is the maximum; inconclusive = response in the unintended direction; inactive = score below 0.9.

The chains behind the UniProt entries cited, without tags or fusion partners.
UniProt P04637, whole entry, looked up: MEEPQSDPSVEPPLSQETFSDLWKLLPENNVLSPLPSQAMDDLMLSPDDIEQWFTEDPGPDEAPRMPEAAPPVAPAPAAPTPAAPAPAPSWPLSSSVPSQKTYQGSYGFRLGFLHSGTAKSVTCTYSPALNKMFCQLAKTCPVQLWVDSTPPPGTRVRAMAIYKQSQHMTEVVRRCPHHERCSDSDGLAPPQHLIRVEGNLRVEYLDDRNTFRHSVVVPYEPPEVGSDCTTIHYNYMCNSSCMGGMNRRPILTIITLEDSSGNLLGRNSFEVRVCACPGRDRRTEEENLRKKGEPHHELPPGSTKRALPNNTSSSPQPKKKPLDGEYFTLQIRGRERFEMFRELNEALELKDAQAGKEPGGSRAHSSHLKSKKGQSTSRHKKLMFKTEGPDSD

What follows are compounds tested against Cellular tumor antigen p53 (Homo sapiens) (UniProt P04637) (assay: TOX21_p53_BLA_p3_ratio: Tox21 HCT-116 p53 Agonism Beta-lactamase Assay, Ratio, Phase 3 (AID 2283596)).
Excerpt: TOX21_p53_BLA_p3 is a cell-based, single-readout assay that uses HCT116, a human intestinal cell line, […] in a 1536-well plate.TOX21_p53_BLA_p3_ratio is an assay readout measuring reporter gene via receptor activity and designed using inducible reporter (beta lactamase induction) detected with GAL4 b-lactamase reporter gene. The signal is derived from the ratio of cleaved (ch2) to uncleaved (ch1) reporter gene substrate used as the measure of target activity.Data from the assay component TOX21_p53_BLA_p3_ratio was analyzed into 1 assay endpoint. This assay endpoint, TOX21_p53_BLA_p3_ratio, was analyzed in the positive analysis fitting direction relative to DMSO as the negative control and baseline of activity. Using a type of inducible reporter, gain-of-signal activity can be used to understand changes in the reporter gene as they relate to the gene TP53. Furthermore, this assay endpoint can be referred to as a primary readout, because this assay has produced multiple assay endpoints where this ratio serves a reporter gene function to understand target activity. To generalize the intended target to other relatable targets, this assay endpoint is annotated to the DNA binding intended target family, where the subfamily is tumor suppressor.
Thawing Method: Place 14 mL of pre-warmed thaw medium into a 15 mL of conical tub. Remove the vial of cells to be thawed from liquid nitrogen and thaw rapidly by placing at 37C in a water bath with gentle agitation for 1-2 minutes. Decontaminate the vial by wiping with 70% ethanol before opening in a biological safety cabinet. Transfer the vial contents drop-wise into 14 mL of thaw medium in a sterile 15-mL conical tub. Centrifuge cells at 900 rpm for 4 minutes and resuspend in thaw medium. Transfer contents to the T75 tissue culture flask containing Thaw Medium and place flask in a humidified 37C/5% CO2 incubator. Switch to growth medium at first passage.Propagation Method: Aspirate medium, rinse once in DPBS, add 0.25% Trypsin/EDTA and swirl to coat the cell evenly. Add an equal volume of Growth Medium to inactivate Trypsin after 2-3 minutes incubation at 37C. Centrifuge cells at 900 rpm for 4 minutes and resuspend in growth medium. Cell should be passage or fed at least twice a week.Assay Protocol: Harvest cells from culture in growth medium and resuspend in assay medium. 2.2 Dispense 4000 cells/5 uL/well into 1536-well black/clear bottom plates using a Multidrop dispenser. After the cells were incubated at 37C for 5 hours, 23 nL of compounds dissolved in DMSO were transferred to the assay plate by a PinTool resulting in a 217-fold dilution. Incubate the plates for 16 hours at 37C, 5% CO2. Add 1 uL of 6X LiveBLAzer FRET B/G (CCF4-AM) Substrate Mixture to each well using a BioRAPTR dispenser and incubate the plates at room temperature for 2 hours. Measure fluorescence intensity at 460 and 530 nm emission and 405 nm excitation by an Envision detector. Data is expressed as the ratio of 460nm/530nm emissions. Add 4 uL of Cell-titer Glo to each well using BioRAPTR and incubate the plates at room temperature for 2 hours. Measure fluorescence intensity by a VewLux plate reader.
For CCCCOC(=O)[C@@H](C)Oc1ccc(Oc2ccc(C#N)cc2F)cc1, the AC50 was inconclusive: 45.9 µM.
For CC#Cc1cc(C)nc(Nc2ccccc2)n1, the AC50 was inconclusive: 46 µM.
With OC(c1ccc(Cl)cc1)(c1ccc(Cl)cc1)C(Cl)(Cl)Cl the AC50 was active: 49.6 µM.
Nc1ccc(Br)cc1 was tested, and the AC50 was inconclusive: 46 µM and the outcome was “inactive”.
For CC(C)Nc1ccc(Nc2ccccc2)cc1, the AC50 was active: 66.1 µM and active: 76.4 µM and active: 31.5 µM.
For CC(C)(C)C(=O)CCl, the AC50 was inconclusive: 45.4 µM.
C=CC#N was tested, and the AC50 was inconclusive: 52.7 µM.
In the case of CCOP(=S)(OCC)SCSC(C)(C)C, the AC50 is reported as inconclusive: 46.1 µM and inconclusive: 46.4 µM.
In the case of Cc1cc2c3c(c1)C(c1ccccc1)=N[C@@H](NC(=O)c1ccncc1)C(=O)N3CC2, the AC50 is reported as inconclusive: 46.1 µM.
C=CC(=O)OCC(CC)CCCC (stereo not given) was tested, and the outcome was “inactive”.
In the case of CCOc1cc(C=O)ccc1O, the outcome is reported as “inactive” and the AC50 is reported as inconclusive: 46.2 µM and inconclusive: 23 µM.
With CCOP(=S)(Oc1cnc(C(C)(C)C)nc1)OC(C)C (stereo not given) the AC50 was inconclusive: 46.1 µM.
For COC(N)=O, the AC50 was inconclusive: 46.1 µM.
With O=C(CCl)Nc1ccccc1 the outcome was “inactive”.
For CC(C)(C)c1cc(O)ccc1O, the AC50 was inconclusive: 46.1 µM and inconclusive: 23 µM.
For Cn1sc(Cl)cc1=O, the outcome was “inactive”.
In the case of N#Cc1cc(Br)c(O)c(Br)c1, the AC50 is reported as active: 57.5 µM and active: 55.7 µM.
For CCC(=NOC/C=C/Cl)C1=C(O)CC(C2CCOCC2)CC1=O (stereo not given), the AC50 was inconclusive: 46 µM.
In the case of Nc1ccccc1C(=O)OCCc1ccccc1, the AC50 is reported as inconclusive: 46.1 µM.
For C[C@]12CCC(=O)C[C@@H]1CC[C@@H]1[C@@H]2CC[C@]2(C)[C@@H](O)CC[C@@H]12, the AC50 was inconclusive: 28.6 µM and inconclusive: 23 µM.
For CC[C@H](C)[C@H]1O[C@]2(C=C[C@@H]1C)C[C@@H]1C[C@@H](C/C=C(\C)[C@@H](O[C@H]3C[C@H](OC)[C@@H](O[C@H]4C[C@H](OC)[C@@H](O)[C@H](C)O4)[C@H](C)O3)[C@@H](C)/C=C/C=C3\CO[C@@H]4[C@H](O)C(C)=C[C@@H](C(=O)O1)[C@]34O)O2 (tested in a mixture with another compound), the AC50 was active: 28.7 µM and inconclusive: 23 µM.
For C=CC(=O)[O][Sn]([CH2]CCC)([CH2]CCC)[CH2]CCC, the AC50 was active: 13.6 µM.
O=[N+]([O-])c1cccc2ccccc12 was tested, and the AC50 was inconclusive: 46.1 µM.
In the case of CCN(CCO)CCO, the AC50 is reported as inconclusive: 46.1 µM.
In the case of C=C(C)C(=O)[O][Sn]([CH2]CCC)([CH2]CCC)[CH2]CCC, the AC50 is reported as active: 17.5 µM.
CSc1nc(N=[N+]=[N-])nc(NC(C)C)n1 was tested, and the AC50 was inconclusive: 46.1 µM.
In the case of NC(=O)O, the AC50 is reported as inconclusive: 46.1 µM.
NS(=O)(=O)C(F)(F)C(F)(F)C(F)(F)C(F)(F)C(F)(F)C(F)(F)C(F)(F)C(F)(F)F was tested, and the AC50 was active: 47 µM.
For CNC(=O)Oc1cccc(N=CN(C)C)c1, the AC50 was inconclusive: 46.1 µM.
For COP(=O)(OC)SCn1c(=O)oc2cc(Cl)cnc21, the AC50 was active: 49.1 µM.
In the case of CCC(C)(c1ccc(O)cc1)c1ccc(O)cc1, the AC50 is reported as active: 86.3 µM and active: 76.2 µM.
With CC(C)C(=O)OCC(C)(C)C(OC(=O)C(C)C)C(C)C (stereo not given) the outcome was “inactive” and the AC50 was inconclusive: 46.1 µM.
In the case of CCOc1cccc(C2(N3CCN(c4ccccc4)CC3)CCC(C)CC2)c1 (stereo not given), the outcome is reported as “inactive”.
For CCCCOC(=O)COC(=O)c1ccccc1C(=O)OCCCC, the AC50 was inconclusive: 79.5 µM and inconclusive: 45.9 µM.
With Oc1ccc(Cl)cc1Cl the outcome was “inactive”.
For O=C(O)C1C2CCC(O2)C1C(=O)O (stereo not given), the outcome was “inactive”.
